Data: patent publication US10463609B2, “Dendrimers for sustained release of compounds” (WAYNE STATE UNIVERSITY, priority 2007, dated 2019)
At least one structure is not confirmed: it was looked up by name or label, or the drawing left a doubt.

Columns and labels:
rabbit pups = test: Neurobehavioral testing of rabbit pups exposed to endotoxin in utero; assay type: in vivo
[1] = tested on: activated microglial cells; test: microPET imaging with microglial specific ligand [11C] PK11195 in endotoxin-exposed pups; assay type: in vivo, rabbit; settings: postnatal day 5 pup exposed to endotoxin in utero, minocycline 15 mg/kg for three days

CN(C)c1ccc(O)c2c1C[C@H]1C[C@H]3[C@H](N(C)C)C(O)=C(C(N)=O)C(=O)[C@@]3(O)C(O)=C1C2=O [minocycline]
improvement in motor deficits, dose response (rabbit pups; 15 mg/kg compared to 5 mg/kg free minocycline): greater improvement in motor deficits when compared to 5 mg/kg | neurobehavioral outcome at postnatal day eight (rabbit pups; endotoxin 20 μg/kg in utero, postnatal minocycline 15 mg/kg): improved neurobehavioral outcome | white matter injury by diffusion tensor imaging (DTI) and immunohistochemistry (rabbit pups; endotoxin-exposed rabbit pups treated with minocycline): decrease | [11C] PK11195 uptake from the first ten minutes to the last ten minutes [1]: decrease
